AC50 data for 68 molecules are collected here from PubChem BioAssay AID662 (National Center for Advancing Translational Sciences (NCATS), 2007).

The structures appear in SMILES notation. The list shows a part of the results. Shown are side measurements of this screen, not its main read-out; they come without a call. Compounds called inactive in the main read-out are mostly missing here. Words in brackets tell the shape of the fitted curve; partial curves, single points and poor fits give uncertain potencies.

What is called AC50 is the concentration giving half of the maximal activity seen.

This assay in a line: Cell signaling CRE-BLA (Fsk stim). The conditions noted are these: CHO CRE-bla reporter (cAMP response element driving beta-lactamase), forskolin EC10, beta-lactamase ratio; measured here: 460 nm blue channel. Summed up:
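Modulation of forskolin signalling: compounds in titration series added with EC10 NKH 477 to CHO cells carrying a CRE-driven beta-lactamase reporter, 3 h, 37C. CCF4 FRET ratio (460/530 nm, ex 405 nm) gives %activity and AC50.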
In the case of `Cc1nc2nc(-c3ccco3)[nH]n2c(=O)c1Cc1ccccc1`, the AC50 is 1 µM [falling, partial curve].

On to `COc1ccc(CCNC(=O)c2ccccc2NC(=O)c2ccco2)cc1OC`, for which the AC50 is 15.8 µM [rising, partial curve].

On to `COc1cc(OC)c(-c2nn3c(-c4ccco4)nnc3s2)cc1OC`, for which the AC50 is 3.98 µM [rising, full curve].

As for `COC(=O)c1cc(OC)c(OC)cc1NC(=O)CSc1nnnn1Cc1ccccc1`, the AC50 is 10 µM [rising, single point].

For the molecule `CCCn1c(SCC(=O)c2cc(OC)ccc2OC)nnc1-c1ccco1`, the AC50 is 10 µM [rising, single point].

As to `Cc1cc(N2CCN(S(=O)(=O)c3ccc(Cl)cc3)CC2)c2ccccc2n1`, the AC50 was 25.1 µM [falling, single point].

In the case of `O=C(CSc1ncnc2c1oc1ccccc12)OCc1ccccc1`, the AC50 is 25.1 µM [rising, single point].

As for `COc1ccccc1NC(=O)CSc1ccc2nnc(-c3cccnc3)n2n1`, the AC50 is 12.6 µM [rising, single point].

For the molecule `COc1ccccc1NC(=O)CCN1C(=O)C2CC=C(Cl)CC2C1=O` (stereo not drawn), the AC50 was 0.398 µM [rising, full curve, poor fit].

Consider `Cc1nc2c(nnn2Cc2ccccc2)c(=O)n1-c1ccccc1`, for which the AC50 was 0.316 µM [falling, partial curve, poor fit].

Take `Clc1ccc2nc(SCc3nnc(-c4ccccc4)o3)[nH]c2c1`: the AC50 is 12.6 µM [rising, partial curve].

Take `CC1CN(c2nc(-c3ccccc3)nc3ccccc23)CC(C)O1` (stereo not drawn): the AC50 is 1.26 µM [rising, partial curve].

As to `CCCCCn1c(CNC(=O)c2cccs2)nc2ccccc21`, the AC50 was 0.00316 µM [rising, full curve, poor fit].

`C=CCn1c(SCCCc2ccccc2)nc2c1c(=O)[nH]c(=O)n2C`: the AC50 is 3.16 µM [rising, single point].

`COc1ccc(-c2noc(-c3cccc(OC)c3OC)n2)cc1OC`: the AC50 is 2 µM [rising, full curve].

Regarding `NC(=O)c1ccsc1NC(=O)C1CCCN1S(=O)(=O)c1ccc(Cl)cc1` (stereo not drawn), the AC50 is 12.6 µM [falling, partial curve].

With `O=C(C1CCCCC1)N1CCN(S(=O)(=O)c2ccc(Cl)cc2)CC1`, the AC50 was 25.1 µM [falling, partial curve].

For the molecule `COC(=O)C1=C(N)Oc2cc(C)n(Cc3cccnc3)c(=O)c2C1c1cccc(OC)c1OC` (stereo not drawn), the AC50 is 20 µM [rising, single point].

In the case of `COc1ccc(C(c2c(O)ccc3ccccc23)N2CCOCC2)c(OC)c1` (stereo not drawn), the AC50 is 1.26 µM [falling, full curve].

Take `C=CCn1c(=O)n(CC=C)c(=O)n(CC=C)c1=O`: the AC50 was 12.6 µM [rising, partial curve].

For the molecule `Cc1nc(N2CCN(c3ccccc3)CC2)nc2c1C(=O)CCC2`, the AC50 is 2 µM [falling, partial curve].

Consider `COCc1nnc(NC(=O)c2cc(Cl)ccc2OC)s1`, for which the AC50 is 10 µM [rising, partial curve].

For the molecule `Cc1nn(-c2ccccc2)c2sc(C(=O)n3cccn3)cc12`, the AC50 is 25.1 µM [rising, single point].

For the molecule `O=C(CCC(=O)c1cccs1)OCc1nc2ccccc2s1`, the AC50 was 0.126 µM [falling, single point].

As for `CCOC(=O)CSc1nc(C)c(C(=O)OCC)s1`, the AC50 is 5.01 µM [falling, single point].

Turning to `COC(=O)[C@@H](NC(=O)N(C1CCCCC1)C1CCCCC1)C(C)C`, the AC50 was 0.0158 µM [falling, full curve, poor fit].

For the molecule `O=C(c1ccccc1)N(Cc1ccc2c(c1)OCO2)Cc1nc2ccccc2c(=O)[nH]1`, the AC50 was 12.6 µM [rising, partial curve].

In the case of `Cn1c(=N)c(S(=O)(=O)c2ccc(F)cc2)cc2c(=O)n3ccccc3nc21`, the concentration at half-maximal activity (AC50) was 1.58 µM [rising, full curve].

Turning to `O=C(Nc1cccc2cccnc12)c1ccc(Br)o1`, the AC50 was 25.1 µM [rising, single point].

`COc1ccc2nc(NC(=O)Cn3cnc4c(=O)n(C)c(=O)n(C)c43)sc2c1`: the AC50 was 7.94 µM [rising, partial curve].

Regarding `Cc1c(O)c(CN2CCCC2)cc2c3c(c(=O)oc12)CCC3`, the AC50 is 12.6 µM [rising, partial curve].

Turning to `CCOC(=O)Nc1ccc2c(c1)ncn2C1CCCCC1`, the AC50 is 10 µM [rising, partial curve].

As for `CC(=O)NC(CCS(C)(=O)=O)C(=O)Nc1cccc(C)c1C` (stereo not drawn), the AC50 is 20 µM [rising, single point].

As to `COc1ccccc1N1CCN(C[C@@H](C(=O)NC(C)(C)C)c2ccccc2)CC1`, the AC50 was 31.6 µM [falling, single point].

Take `O=S(=O)(c1ccccc1)N1CCN(c2nnnn2-c2ccccc2)CC1`: the AC50 is 5.01 µM [falling, single point].

For `CCOCCCNC(=O)C(NC(=O)c1cnccn1)c1ccc(OC)cc1` (stereo not drawn), the AC50 is 0.126 µM [falling, full curve, poor fit].

Take `COc1ccc(OCCCC(=O)Nc2ccc3c(c2)OCCO3)cc1`: the AC50 is 5.01 µM [falling, partial curve].

`CCOc1ccc(CNC(=O)C2CCN(S(=O)(=O)CC)CC2)cc1OC`: the AC50 was 12.6 µM [falling, partial curve, poor fit].

For the molecule `Cn1c(=O)c2c(nc(CN3CCN(c4ccccc4)CC3)n2CCCc2ccccc2)n(C)c1=O`, the AC50 was 0.398 µM [falling, full curve, poor fit].

On to `O=C(Cn1cnc2ccccc2c1=O)NC1CCCc2ccccc21` (stereo not drawn), for which the AC50 is 0.0794 µM [falling, partial curve, poor fit].

On to `Cc1ccc2[nH]c(=O)c3cc(C(=O)N(C)Cc4ccco4)sc3c2c1`, for which the AC50 is 10 µM [rising, partial curve].

As for `CC1(C)CC(=O)C(C=NCCC2=CCCCC2)=C(O)C1`, the AC50 is 0.00316 µM [falling, full curve, poor fit].

Consider `CCOc1ccc(CCNS(=O)(=O)c2cccc3nsnc23)cc1OCC`, for which the AC50 is 10 µM [rising, partial curve].

In the case of `CCc1nnc(NC(=O)CSc2nc3c(cc2C#N)CCCC3)s1`, the AC50 was 2.51 µM [rising, full curve].

`COc1cccc(NC(=O)Cc2cn(C)c3ccccc23)c1`: the AC50 was 1 µM [falling, full curve].

In the case of `COc1ccc(-n2c(=O)c(-c3ccc(Cl)cc3)nc3cnc(N(C)C)nc32)cc1`, the AC50 is 5.01 µM [rising, partial curve].

On to `O=c1c(-c2cc(F)cc(F)c2)nc2cnc(Oc3ccccc3)nc2n1C[C@H]1CCCO1`, for which the AC50 is 3.98 µM [rising, single point].

Turning to `O=C(CN(c1ccc(F)cc1)S(=O)(=O)c1ccc2c(c1)OCCO2)Nc1ccc2c(c1)OCO2`, the half-maximal activity concentration (AC50) is 5.01 µM [falling, partial curve].

In the case of `CN(C)c1nc(Oc2ccc(C(=O)OCC(=O)Nc3ccccc3)cc2)nc(N(C)C)n1`, the AC50 was 0.0158 µM [falling, full curve].

For the molecule `Clc1ccc(C2Nc3ccccc3-n3cccc32)cc1` (stereo not drawn), the AC50 is 7.94 µM [rising, partial curve].

In the case of `COCCn1c(=O)c(-c2ccc(Cl)cc2)nc2cnc(Oc3ccccc3)nc21`, the AC50 is 15.8 µM [rising, partial curve].

On to `COCCN(CCOC)Cc1c(O)ccc2c3c(c(=O)oc12)CCC3`, for which the AC50 was 12.6 µM [rising, partial curve].

`CC(=O)c1cccc(NC(=O)CCS(=O)(=O)c2cccc3nonc23)c1`: the AC50 was 1.58 µM [rising, partial curve].

`CCCCOc1ccccc1NC(=O)CC1SC(=NCC)N(CC)C1=O` (stereo not drawn): the AC50 was 0.251 µM [rising, full curve, poor fit].

As for `CCn1c(=O)cc(OCC(=O)Nc2ccccc2N2CCN(C)CC2)c2ccccc21`, the AC50 was 5.01 µM [rising, partial curve].

Take `CC(C)OC(=O)c1cccc(C(=O)O)n1`: the concentration at half-maximal activity (AC50) is 0.794 µM [rising, full curve].

With `O=C(NCc1ccncc1)c1c(F)c(F)c(F)c(F)c1F`, the AC50 was 31.6 µM [falling, single point].

As to `CN(C)c1ncc2nc(-c3cccs3)c(=O)n(CCc3ccccc3)c2n1`, the AC50 was 5.01 µM [rising, partial curve].

For `Cc1ccc(S(=O)(=O)c2cc3c(=O)n4ccccc4nc3n(Cc3ccco3)c2=N)cc1`, the AC50 was 10 µM [rising, partial curve].

On to `CCN(CC)CCCNC(=O)c1cc2c(-c3ccc(Cl)cc3)nn(C)c2s1`, for which the AC50 is 6.31 µM [rising, partial curve].

Consider `O=c1c2c3c(sc2nc2n1CCCC2)CCC3`, for which the concentration at half-maximal activity (AC50) is 12.6 µM [rising, partial curve].

With `COc1ccccc1NC(=O)CSc1nc2ncccc2[nH]1`, the AC50 is 0.02 µM [rising, full curve].

Take `CCOc1ccc(S(=O)(=O)N(CC(=O)N2CCc3ccccc32)Cc2ccco2)cc1`: the AC50 was 25.1 µM [falling, single point].

With `COC(=O)C1=C(C)N(c2cc(Cl)cc(Cl)c2)C(=O)C1`, the AC50 is 12.6 µM [falling, partial curve].

As to `CCCCn1c(SCC(=O)N2CCCC2)nc2c1c(=O)n(C)c(=O)n2C`, the AC50 was 20 µM [rising, single point].

Turning to `O=C(CSc1nnc(-c2cccs2)n1-c1ccccc1)Nc1ccccc1`, the AC50 is 7.94 µM [rising, partial curve].

Turning to `O=c1c(-c2cc(F)cc(F)c2)nc2cnc(N3CCOCC3)nc2n1C1CC1`, the AC50 was 1.58 µM [rising, partial curve].

Turning to `CCCCOC(=O)Cn1c(=N)n(CCN2CCOCC2)c2ccccc21`, the AC50 is 12.6 µM [falling, single point].
